According to paper PMC10406618:
These are yes or no findings as the source states them, for the method shown. Binding seen in cells or lysates may run through a third protein. Some entries that bind do so weakly or less than the wild type.

Protein sequences, listed by entry. Tags and fused reporters are not part of them.
UniProt P09874: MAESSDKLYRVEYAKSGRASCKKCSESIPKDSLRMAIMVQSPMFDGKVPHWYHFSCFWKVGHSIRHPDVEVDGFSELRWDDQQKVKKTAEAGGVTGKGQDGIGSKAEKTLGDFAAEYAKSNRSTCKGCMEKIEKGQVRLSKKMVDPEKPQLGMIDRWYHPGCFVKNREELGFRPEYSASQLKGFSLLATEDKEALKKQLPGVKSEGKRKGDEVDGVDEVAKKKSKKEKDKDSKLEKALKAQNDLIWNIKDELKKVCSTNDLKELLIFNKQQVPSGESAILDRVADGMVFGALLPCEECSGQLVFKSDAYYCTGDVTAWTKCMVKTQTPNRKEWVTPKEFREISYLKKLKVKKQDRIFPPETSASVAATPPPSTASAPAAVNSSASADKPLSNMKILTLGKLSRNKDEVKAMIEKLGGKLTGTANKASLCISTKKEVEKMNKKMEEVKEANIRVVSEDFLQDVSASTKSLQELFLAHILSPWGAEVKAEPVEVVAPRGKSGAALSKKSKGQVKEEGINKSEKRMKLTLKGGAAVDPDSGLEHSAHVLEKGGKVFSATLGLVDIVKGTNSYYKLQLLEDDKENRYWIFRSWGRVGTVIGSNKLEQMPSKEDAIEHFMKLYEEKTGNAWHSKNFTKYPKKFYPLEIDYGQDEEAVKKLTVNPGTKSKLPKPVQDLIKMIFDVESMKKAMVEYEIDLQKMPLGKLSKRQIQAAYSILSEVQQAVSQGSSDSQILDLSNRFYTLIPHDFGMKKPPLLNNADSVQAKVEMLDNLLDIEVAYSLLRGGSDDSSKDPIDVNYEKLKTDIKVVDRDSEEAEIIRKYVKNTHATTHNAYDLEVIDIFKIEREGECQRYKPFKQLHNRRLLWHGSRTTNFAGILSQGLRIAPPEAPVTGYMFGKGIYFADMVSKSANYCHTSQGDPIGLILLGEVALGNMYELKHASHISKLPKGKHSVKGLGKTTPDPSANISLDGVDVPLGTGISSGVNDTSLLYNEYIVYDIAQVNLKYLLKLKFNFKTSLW

How the values were obtained:
[1] = biological target: poly (ADP-ribose) polymerase 1 (PARP1), endogenous (human (endogenous in Huh7)) (UniProt P09874); assay: co-IP; endogenous proteins; lysates of Huh7, HepG2, HeLa or HEK293T cells in IP lysis buffer (50 mM Tris-HCl pH 7.5, 150 mM NaCl, 1 mM EDTA, 1 mM EGTA, 5 mM MgCl2, 10% glycerol, 0.2% NP-40), antibody 4 h at 4 °C, Protein A/G beads; with or without 3 Gy irradiation, benzonase, PARG inhibitor PDD00017273 (10 μM), PC4 knock-down
[2] = biological target: poly (ADP-ribose) polymerase 1 (PARP1), endogenous (human (endogenous in Huh7)) (UniProt P09874); assay: co-sedimentation; sucrose gradient fractionation of Huh7 cell extracts (NETN buffer, 36,000 rpm 3 h 4 °C, SW41 rotor), fractions blotted; with or without 3 Gy irradiation and PC4 knock-down

binding [1]: binds
binding [2]: binds
Substance: XRCC5 (Ku80), endogenous (from UniProt P13010 1-732)
